Where a name gives a salt, the structure may show the parent alone. The list shows a part of the results. Single values are uncertain here, since repeats match poorly.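 Human embryonic kidney cells were transiently transfected with a plasmid bearing a Renilla luciferase gene under the HSV-TK promoter. This first-round screen tests roughly ten thousand compounds for ones that increase reporter output.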

For the assay, the system named is HEK 293FT. Nature of the assay: log relative Renilla luciferase luminescence (reporter expression vs reference, reference not stated) (log (base not stated)); higher = higher recombinant reporter expression. To be noted: 10 µM; time after transfection 48 h.
In the case of `COc1ccc(C(=O)N2CCCC2=O)cc1` [Aniracetam], the log turned out to be 0.0467. With `C[C@@]12N[C@@H](Cc3ccccc31)c1ccccc12` [(-)-MK 801 maleate] the figure was 0.136; with `CC12NC(Cc3ccccc31)c1ccccc12` (single isomer, unassigned; (+)) [(+)-MK 801 maleate], -0.00216. With `CC1=NN=C(c2ccc(N)cc2)c2cc3c(cc2C1)OCO3` the figure was 0.093; with `CCOC(=O)c1ncn2c1CN(C)C(=O)c1cc(N=[N+]=[N-])ccc1-2`, -0.136. With `c1ccc(CC(c2ccccc2)N2CCCCC2)cc1` (racemic) [(±)-1-(1,2-Diphenylethyl)piperidine maleate] the figure was 0.13. In the case of `NC(=S)N/N=C/c1coc2ccccc2c1=O.[Cl][Cu][Cl]`, the log was -0.0423. As for `c1ccc(C2CC2)c(OCC2=NCCN2)c1` [Cirazoline hydrochloride], the log is -0.0956. With `CN1CCC(c2c[nH]c3ccc(O)cc23)CC1` the figure was 0.0958; with `C=C(C)CN1CC[C@@]23c4c5ccc(O)c4O[C@H]2c2[nH]c4ccccc4c2C[C@]3(O)C1C5` [SDM25N hydrochloride], 0.104; with `CC(C)NCC(O)c1ccc(N)c(C#N)c1` (centres undefined) [Cimaterol], -0.0369.

For the compound `CC(C)C[C@@H](N)C1(c2ccc(Cl)cc2)CCC1`, the log is -0.096. With `C[C@H](N)Cc1cnc[nH]1` [(S)-(+)-a-Methylhistamine dihydrobromide] the figure was 0.00743; with `O=C1/C(=C/c2ccccc2)C[C@@]2(O)[C@H]3Cc4ccc(O)c5c4[C@@]2(CCN3CC2CC2)[C@H]1O5` [BNTX maleate], -0.0585; with `Oc1cc2c(cc1O)[C@H]1c3ccccc3CN[C@@H]1CC2` (racemic) [Dihydrexidine hydrochloride], -0.0798. With `CC(=O)[C@H]1CC[C@H]2[C@@H]3CC[C@H]4C[C@](C)(O)CC[C@]4(C)[C@H]3CC[C@]12C` [Ganaxolone] the figure was -0.0437; with `Cn1cc(C(=O)C(=O)N[C@H]2CN3CCC2CC3)c2ccccc21`, -0.00108.

For `CCOC(=O)c1cncn1[C@H](C)c1ccccc1` [Etomidate], the log was 0.0808.

Consider `Cc1[nH]c2ccc(O)cc2c1CCN` [2-Methyl-5-hydroxytryptamine hydrochloride], for which the log was -0.00649. In the case of `O=C1CCCN1CC#CCN1CCCC1` [Oxotremorine sesquifumarate] it was 0.16; in that of `Cc1ccc2c(c1)C1(CCN(CCc3nc(-c4ccccc4)oc3C)CC1)OC(=O)N2`, -1.47. In the case of `COc1ccc(C(=O)c2c(C)n(CCN3CCOCC3)c3cc(I)ccc23)cc1` it was 0.0801; in that of `Oc1ccc2c3c1O[C@H]1c4[nH]c5ccccc5c4C[C@@]4(O)[C@@H](C2)N(CC2CC2)CC[C@]314` [Naltrindole hydrochloride], -0.0186. With `Clc1cccc(SC2CCNCC2)n1` [Anpirtoline hydrochloride] the figure was -0.00758; with `c1ccc2c(c1)[I+]c1ccccc1-2` [Diphenyleneiodonium chloride], -1.49; with `OC(Cc1ccncc1)C(Cl)(Cl)Cl` (centres undefined), 0.0885. For the compound `Oc1ccc2c3c1O[C@H]1c4[nH]c5c(c4C[C@@]4(O)[C@@H](C2)N(CC2CC2)CC[C@]314)C[C@@]1(O)[C@H]2Cc3ccc(O)c4c3[C@@]1(CCN2CC1CC1)[C@H]5O4` [nor-Binaltorphimine dihydrochloride], the log was -0.00758. In the case of `O=C(Cc1ccc(Cl)c(Cl)c1)N1CCCCC1CN1CCCC1` (centres undefined) it was -0.0524. With `O=C(N[C@H]1CN2CCC1CC2)c1ccc(Cl)cc1` the figure was -0.341; with `Cc1onc(O)c1CC(N)C(=O)O` (racemic), 0.13. In the case of `CCNC(=O)[C@H]1O[C@@H](n2cnc3c(N)ncnc32)[C@H](O)[C@@H]1O` it was 0.0481; in that of `Cc1onc(O)c1C[C@H](N)C(=O)O`, -0.00324. Regarding `COc1ccc(-n2nc(C(F)(F)F)cc2-c2ccc(Cl)cc2)cc1`, the log worked out at 0.207. Turning to `CN1[C@@H]2CC[C@H]1C[C@@H](OC(=O)c1cc(Cl)cc(Cl)c1)C2`, the log is -0.0109. Regarding `CCCCC1(C2CCCC2)Cc2cc(OCCCC(=O)O)c(Cl)c(Cl)c2C1=O` (centres undefined), the log was -0.024. With `CN1c2ccccc2C(NCCCCCCC(=O)O)c2ccc(Cl)cc2S1(=O)=O` (centres undefined) [Tianeptine] the figure was 0.123. In the case of `Cc1cc(SCc2sc(-c3ccc(C(F)(F)F)c(F)c3)nc2C)ccc1OCC(=O)O` it was -0.159; in that of `Clc1ccc(N2CCN(Cc3c[nH]c4ncccc34)CC2)cc1` [L-745,870 trihydrochloride], -0.0109.

As to `C/C(O)=C(\C#N)C(=O)Nc1cc(Br)ccc1Br`, the log is -0.00324.
